The values that follow come from PMC4669414 (Scientific Reports, 2015).

The test system of the assay is PC9/G cells. The assay is described as follows: cells. The conditions noted are these: Homo sapiens, 72 h.

`COc1cc2ncnc(Nc3ccc(F)c(Cl)c3)c2cc1OCCCN1CCOCC1` [Gef, Gefitinib]: the IC50 (in general, the concentration that gives 50% inhibition) amounted to 4.36 ± 0.47 µM.
